Laboratory results published in patent US20090176891A1, “DENTAL COMPOSITION AND METHOD OF USE” (priority 2007, published 2009).
Some of these results come from one statement about several compounds together. For at least one compound, name, drawing or mass did not settle the structure.

Experiment: Organic leachables from light cured resin composite samples by UV-Vis spectroscopy
Format: physicochemical
Conditions: 200 mg sample (10 times clinical dose), 70 Kg patient

Row | Compound | amount potentially leaching below acutely toxic levels
1 | C=C(C)C(=O)OCC(O)COc1ccc(C(C)(C)c2ccc(OCC(O)COC(=O)C(=C)C)cc2)cc1 (centres unmarked) [M3, 2,2-bis[p-(2-hydroxy-3-methacryloxypropoxy)phenyl]propane] | at least 4 orders of magnitude
2 | C=C(C)C(=O)OCCO [M5, hydroxyl ethyl methacrylate] | at least 4 orders of magnitude
